According to PubChem BioAssay AID540276 (National Center for Advancing Translational Sciences (NCATS), 2011):
Hit rate of the full screen: of about 300,000 compounds, about 5,400 (1.8%) were called active. This list was built around the results that the source calls inconclusive (neither active nor inactive); the mix of calls is not that of the screen. The call rests on the fitted dose curve; tested in HEK293 cells. A potency beside an inconclusive call is a rough fit, not a confirmed value.

assay: qHTS for inhibitors of binding or entry into cells for Marburg Virus; conditions: Marburg virus pseudotyped entry inhibition, cell reporter; series mostly up to 37.8 µM
Potency means the concentration at half of the fitted maximal effect.

Compound	Potency
COc1ccccc1CNC(=O)CCc1c(C)c2cc3c(C)c(C)oc3cc2oc1=O	inconclusive: 5.62 µM [activator, single point]
CCOC(=O)c1ccc(NC(=O)Cn2cc(C(=O)C3CC3)c3ccccc32)cc1	inactive
O=C(O)CC(NC(=O)c1ccncc1)c1ccccc1 (stereo not given)	inconclusive: 12.6 µM [activator, single point]
CCc1nn(CC(=O)NCc2ccco2)c(=O)c2cc3c(OC)cccc3n12	inconclusive: 17.8 µM [inhibitor, single point]
O=C1NCC(COCc2ccco2)O1 (stereo not given)	inconclusive: 29.1 µM [activator, partial curve, poor fit]
CN(C)CCCNC(=S)NCC(c1ccc(Cl)cc1Cl)c1c[nH]c2ccccc12 (stereo not given)	inconclusive: 3.98 µM [inhibitor, partial curve, poor fit]
Cc1ccc(C(C)C)c(OCc2ccc(C(=O)N/N=C/c3ccc(O)cc3O)cc2)c1	active: 6.31 µM
Nc1nc2c(ncn2COC(CO)CO)c(=O)[nH]1	inconclusive: 0.126 µM [inhibitor, full curve, poor fit]
Cn1nc(CC(=O)NCc2ccc(C(F)(F)F)cc2)c2ccccc2c1=O	inconclusive: 1.64 µM [inhibitor, full curve, poor fit]
CCOC(=O)C1CCCN(C(=O)Nc2c(-c3ccccc3)noc2C)C1 (stereo not given)	inactive
CC1(C)CC(=O)CC(=O)/C1=N\Nc1c(Cl)cc(Cl)cc1Cl	inconclusive: 6.31 µM [activator, single point]
COc1cc(C(=O)Nc2nc3ccccc3[nH]2)ccc1OC(F)F	inconclusive: 10 µM [inhibitor, partial curve, poor fit]
COc1cc(OC)cc(C(=O)Nc2ccc(-c3nc4ccccc4s3)cc2C)c1	inactive
CC(=O)N1CCc2cc(S(=O)(=O)NCCC(=O)N3CCc4ccccc4C3)ccc21	inconclusive: 14.6 µM [inhibitor, partial curve]
CCOC(=O)c1[nH]c2ccccc2c1NC(=O)c1ccco1	inconclusive: 3.66 µM [inhibitor, full curve, poor fit]
Cc1cc(NC(=O)CSc2nnc(-c3ccccc3)c(-c3ccccc3)n2)no1	inconclusive: 2.82 µM [inhibitor, single point]
Cc1ccccc1OCCN(C#N)c1nc(N(C)C)nc(N(C)C)n1	inconclusive: 20 µM [inhibitor, partial curve, poor fit]
COc1cccc([C@@H]2Oc3ccc(Br)cc3C(=O)[C@@H]2O)c1	inconclusive: 5.31 µM [activator, single point]
CCCCn1c(SCC(=O)N2c3ccccc3CCc3ccccc32)nc2c1c(=O)n(C)c(=O)n2C	inconclusive: 0.501 µM [inhibitor, full curve, poor fit]
CCOc1ccc(C2NC(=O)NC(C)=C2C(=O)OC)cc1C (stereo not given)	inconclusive: 3.16 µM [inhibitor, single point]
O=C(OCc1ccccc1)N(CCCCN(CCCNCc1ccccc1)C(=O)OCc1ccccc1)CCCNCc1ccccc1	inconclusive: 3.55 µM [inhibitor, full curve, poor fit]
O=c1[nH]c2ccccc2c(=O)n1Cc1ccccc1	inconclusive: 3.16 µM [inhibitor, partial curve, poor fit]

Reprinted at random: 4 records from the list
Compound	Potency
CCCCn1c(SCC(=O)N2c3ccccc3CCc3ccccc32)nc2c1c(=O)n(C)c(=O)n2C	inconclusive: 0.501 µM [inhibitor, full curve, poor fit]
CC(=O)N1CCc2cc(S(=O)(=O)NCCC(=O)N3CCc4ccccc4C3)ccc21	inconclusive: 14.6 µM [inhibitor, partial curve]
CCOC(=O)c1[nH]c2ccccc2c1NC(=O)c1ccco1	inconclusive: 3.66 µM [inhibitor, full curve, poor fit]
O=c1[nH]c2ccccc2c(=O)n1Cc1ccccc1	inconclusive: 3.16 µM [inhibitor, partial curve, poor fit]

Later entries.

Compound	Potency
Cc1nn(-c2cccc(C(F)(F)F)c2)c(Cl)c1/C=N/n1cnnc1	inconclusive: 35.5 µM [inhibitor, partial curve, poor fit]
CC1=CC[C@@H](C)O[C@@]2(C1)C(=O)N(Cc1ccc(F)cc1)c1ccccc12	inconclusive: 0.188 µM [activator, full curve, poor fit]
COc1ccc(C(=O)CN2C(=O)NC3(CCCCCC3)C2=O)c(OC)c1	inconclusive: 0.316 µM [inhibitor, partial curve, poor fit]
C/C(=N\NC(=S)NC(C)C)c1cccc([N+](=O)[O-])c1	inactive
O=C(Oc1cccnc1)c1cc2ccccc2oc1=O	inconclusive: 1.26 µM [inhibitor, partial curve, poor fit]
NC(=O)NC(=O)CC1S/C(=N/N=C2\CSC(=O)N2)NC1=O (stereo not given)	inactive
CC(=O)c1[nH]c(C)c(C(=O)N2CCCC(Nc3ccc(C(C)C)cc3)C2)c1C (stereo not given)	inconclusive: 22.4 µM [inhibitor, single point]
CC(NCc1ccc(F)cc1)C(=O)NC1CCCCC1 (stereo not given)	inactive
Cc1ccc(-n2c(C)cc(C(=O)OCC(=O)N(CC(C)C)C3CCS(=O)(=O)C3)c2C)cc1 (stereo not given)	inactive
Cc1ccc(C)c(S(=O)(=O)N2CCN(Cc3cc4c(cc3O)OCO4)CC2)c1	inconclusive: 0.112 µM [activator, full curve, poor fit]
O=c1nc(SCc2cccc(C(F)(F)F)c2)nc2ccccn12	inconclusive: 35.5 µM [inhibitor, single point]
COc1ccc2c(n1)Sc1nc3ccccc3nc1N2	inconclusive: 1 µM [activator, full curve, poor fit]
CCOc1ccc(/C=N/n2nnnc2N)cc1O	inconclusive: 35.5 µM [inhibitor, partial curve, poor fit]
Cc1ccccc1C(=O)N1CCN(c2ccc(NC(=O)c3ccco3)cc2Cl)CC1	inconclusive: 20 µM [inhibitor, single point]
CCc1cccc(NC(=O)c2ccc(Cn3c(=O)[nH]c4ccsc4c3=O)cc2)c1	inconclusive: 14.6 µM [activator, single point]
Nc1c(Cl)cc(N=Nc2ccccc2)cc1Cl	inconclusive: 1 µM [activator, full curve, poor fit]
CCOc1ccccc1CN(Cc1ccco1)S(=O)(=O)c1ccc(-n2cnnn2)c(OC)c1	inconclusive: 20.6 µM [inhibitor, single point]
COc1ccc(C(=O)/C=C/c2cn(CC(O)CN3CCc4ccccc43)c3ccccc23)cc1OC (stereo not given)	inconclusive: 28.2 µM [inhibitor, single point]
O=C(Nc1ccc2ncccc2c1)c1cc(Cl)ccc1Cl	inconclusive: 3.16 µM [activator, full curve]
COc1ccc(N2CC(C(=O)OCC(=O)c3ccccc3)CC2=O)cc1 (stereo not given)	inconclusive: 4.47 µM [activator, full curve, poor fit]
O=C(COC(=O)/C=C/c1ccccc1)NCc1ccc(Cl)cc1	inconclusive: 3.16 µM [activator, full curve, poor fit]
CCC(=O)Nc1ccc2c(c1)C(=O)c1ccccc1C2=O	inconclusive: 1.16 µM [activator, single point]

Compound	Potency
N#Cc1ccc(C(=O)Nc2nc3ccccc3[nH]2)cc1	active: 10 µM
Cn1c(=O)c2c(nc(Br)n2C/C=N/NC(N)=S)n(C)c1=O	inconclusive: 7.94 µM [inhibitor, partial curve, poor fit]
CC(=O)N/N=C/c1cc(C(C)(C)C)cc(/C=N/NC(C)=O)c1O	inconclusive: 28.2 µM [inhibitor, single point]
CC(=O)c1cn(CC(=O)Nc2cccc(C)c2C)c2ccccc12	inconclusive: 11.2 µM [inhibitor, partial curve, poor fit]
Cc1ccc(-n2c(SCC(=O)NCc3ccco3)nc3c(sc4ccccc43)c2=O)cc1	inconclusive: 20 µM [inhibitor, partial curve, poor fit]
CCC(=O)c1cn(CCOc2ccccc2OC)c2ccccc12	inconclusive: 8.91 µM [inhibitor, single point]
O=C(COC(=O)c1cncc(Br)c1)NCc1ccco1	inactive
CCOC(=O)N1CCC(=NNC(=O)COc2ccc(C#N)cc2)CC1	inconclusive: 31.6 µM [activator, single point]
CC(C)c1ccc(OCC(=O)NCCO)cc1	inconclusive: 3.16 µM [activator, partial curve, poor fit]
Cc1csc(NC(=O)c2cc(C)nc3ccccc23)n1	inactive
COc1ccccc1CNC(=O)CCCc1ccccc1	inactive
COC(=O)CNC(=O)C1CCC(CNS(=O)(=O)c2cccc3nsnc23)CC1 (stereo not given)	inconclusive: 20 µM [activator, single point]
CCCn1nc(C(=O)Nc2cc(S(=O)(=O)Nc3ccc(OC)cc3)ccc2O)c2ccccc2c1=O	inconclusive: 0.112 µM [inhibitor, full curve, poor fit]
CN(C)c1cccc(C(=O)OC(C(=O)Nc2ccc(Cl)cc2C(F)(F)F)c2ccccc2)c1 (stereo not given)	inconclusive: 10 µM [inhibitor, partial curve, poor fit]
Cc1ccc(N=Cc2c(O)c3ccccc3n(C)c2=O)cc1	inactive
Nc1ccc(C(=O)N2CCN(S(=O)(=O)c3ccc(Br)cc3)CC2)cc1[N+](=O)[O-]	inactive
Fc1ccc(CSc2ncnc3sc4c(c23)CCCC4)cc1	inactive
CCOC(=O)c1cnc(Nc2nc3ccccc3o2)nc1CN1CCN(C)CC1	inconclusive: 10 µM [inhibitor, single point]
COc1cc2nc(CN(CCC(C)C)Cc3nc4cc(OC)c(OC)cc4c(=O)[nH]3)[nH]c(=O)c2cc1OC	inconclusive: 1.26 µM [activator, single point]
CCn1c(C)c(C)c2cc(C(=O)NCCCN3CCCCCC3)ccc21	inconclusive: 35.5 µM [inhibitor, single point]
COc1ccccc1N1CCN(C(=O)c2cc(CC(C)C)on2)CC1	inactive
